The text below walks through data of US20200277375A1.

Test [1] addresses cynomolgus monkey CD47-Fc (cynomolgus monkey). The test is described as follows: direct titration ELISA, FIG. 18B. For orientation: An ELISA detects its analyte on a solid surface through an enzyme-linked reagent.
Test [2] shares this target. The test is described as follows: direct titration ELISA, FIG. 11B.
For test [3] the target is unchanged. The test is described as follows: direct titration ELISA, FIG. 3.
The target is the same in test [4]. The test is described as follows: direct specificity ELISA, IgG 1 µg/ml, FIG. 5B.
Test [5] addresses cynomolgus monkey CD47 on transfected CHO-K1 cells (cynomolgus monkey). The test is described as follows: flow cytometry, cyno CD47-transfected CHO-K1, FIG. 6A.
Test [6] deals with cynomolgus monkey CD47-Fc (cynomolgus monkey). The test is described as follows: direct specificity ELISA, IgG 1 µg/ml, FIG. 5A.
The target is the same in test [7]. The test is described as follows: direct specificity ELISA, IgG 1 µg/ml, FIG. 5F.
Test [8] has the same target. The test is described as follows: direct titration ELISA, FIG. 9B.
The target is the same in test [9]. The test is described as follows: direct specificity ELISA, IgG 10 µg/ml, FIG. 13A.
Test [10] has the same target. The test is described as follows: direct specificity ELISA, IgG 10 µg/ml, FIG. 13B.
The target is the same in test [11]. The test is described as follows: direct specificity ELISA, IgG 1 µg/ml, FIG. 5E.
The target is the same in test [12]. The test is described as follows: direct specificity ELISA, IgG 1 µg/ml, FIG. 5C.
For test [13] the target is unchanged. The test is described as follows: summary of the ELISAs above.
The target is the same in test [14]. The test is described as follows: direct specificity ELISA, IgG 1 µg/ml, FIG. 5G.

Residue numbers refer to the chain shown, from its start. Numbers in names are those of the source. Results are given in words; binding and its absence hold for the method and conditions named. Some binding calls cover weakened binding; strength is not graded here.

B1: mVH/mVL (chimeric VxP037) in human IgG1null format (antibody, V domains shown)
VH: EVQLQQFGAELVKPGASMKLSCKASGYTFTNYYVFWVKQRPGQGLEWIGDINPVNGDTNFNEKFKNKATLTVDKSSTTTYLQLSSLTSEDSAVYYCTRGGYTMDYWGQGTLVTVSS
VL: DVVMTQTPLSLSVSLGDQASISCRSSQSLVHSNGNTYLHWYLQKPGQSPKLLIYKVSYRFSGVPDRFSGSGSGTDFTLKISRVEAEDLGVYFCSQNTHVPRTFGQGTKVEIK
B1: the binding result in test [1], in [2], in [3], in test [4] and in test [5] was “binds” throughout.

B2: mVH/mVL (chimeric VxP037) in human IgG4(S228P) format (antibody, V domains shown)
VH: B1 VH
VL: B1 VL
Take B2: in test [5], the binding entry is listed as “binds”.

B3: mVH/mVL (chimeric VxP037) in human IgG1 format (antibody, V domains shown)
VH: B1 VH
VL: B1 VL
As to B3, the binding result in [6] is given as “binds”.

B4: D-H3 in human IgG1null format (antibody, V domains shown)
VH: EVQLVQSGAEVKKPGESLKISCKGSGYSFTNYYIFWVRQMPGKGLEWMGDINPVNGDTNYSPSFQGQVTISADKSISTAYLQWSSLKASDTAMYYCARGGYTPDYWGQGTLVTVSS
VL: DIVMTQSPLSLPVTPGEPASISCRSSQSLLHSNGYNYLHWYLQKPGQSPQLLIYKGSNRFSGVPDRFSGSGSGTDFTLKISRVEAEDVGVYYCSQNLHVPRTFGQGTKVEIK
B4: the binding result in [3], in test [5] and in [7] was “binds” each time.

B5: A-D5.16-DI in human IgG1null format (antibody, V domains shown)
VH: B4 VH with D50I, N55D, N59R, P103M, Y105R
VL: B4 VL with N33A, G56V, V88A, S94F, L97T, V99T
B5: the binding result in [1] is listed as “binds”.

B6: A-D5 in human IgG4(S228P) format (antibody, V domains shown)
VH: B4 VH with S28T, D50I, N55D, S61N, P103M, Y105R
VL: B4 VL with N36T, G56V, F60L, S94F, L97T, V99T
B6: in test [5], the binding result is “binds”.

B7: A-D5.12 in human IgG1null format (antibody, V domains shown)
VH: B4 VH with D50I, N55D, N59R, S61N, P103M, Y105R
VL: B4 VL with G56V, F60L, S94F, L97T, V99T
In the case of B7, the binding entry in test [2] was “binds”.

B8: A-D5.17 in human IgG1null format (antibody, V domains shown)
VH: B4 VH with D50I, N55D, N59R, P103M, Y105R
VL: B4 VL with N33T, G56V, F60L, S94F, L97T, V99T
On to B8, for which, in [2], the binding result was “binds”.

B9: A-D5.10 in human IgG1null format (antibody, V domains shown)
VH: B4 VH with S28T, D50I, N55D, S61N, P103M, Y105R
VL: B4 VL with N33Q, N36T, G56V, F60L, S94F, N96Q, L97T, V99T
With B9, the binding result in [8] is “binds”.

B10: D-H3 in human IgG4(S228P) format (antibody, V domains shown)
VH: B4 VH
VL: B4 VL
With B10, the binding result in [5] is “binds”.

B11: A-D5.14 in human IgG1null format (antibody, V domains shown)
VH: B4 VH with D50I, N55D, N59R, P103M, Y105R
VL: B4 VL with N33S, G56V, F60L, S94F, L97T, V99T
On to B11, for which the binding result in [2] was “binds”.

B12: A-D5.18 in human IgG1null format (antibody, V domains shown)
VH: B4 VH with D50I, N55D, N59R, P103M, Y105R
VL: B4 VL with G34A, G56V, F60L, S94F, L97T, V99T
For the molecule B12, the binding result in test [2] is reported as “binds”.

B13: A-D5.15 in human IgG1null format (antibody, V domains shown)
VH: B4 VH with D50I, N55D, N59R, P103M, Y105R
VL: B4 VL with N33G, G56V, F60L, S94F, L97T, V99T
Turning to B13, the binding entry in [2] is “binds”.

B14: A-D5.11 in human IgG1null format (antibody, V domains shown)
VH: B4 VH with D50I, N55D, S61N, P103M, Y105R
VL: B4 VL with G56V, F60L, S94F, L97T, V99T
Consider B14, for which, in test [2], the binding result is “binds”.

B15: A-D5.4 in human IgG1null format (antibody, V domains shown)
VH: B4 VH with S28T, D50I, N55D, S61N, P103M, Y105R
VL: B4 VL with G56V, F60L, S94F, L97T, V99T
On to B15, for which the binding result in test [8] and in test [9] was “binds” each time.

B16: A-D5.16 in human IgG1null format (antibody, V domains shown)
VH: B4 VH with D50I, N55D, N59R, P103M, Y105R
VL: B4 VL with N33A, G56V, F60L, S94F, L97T, V99T
Take B16: the binding result in test [1], in [2] and in test [10] was “binds” each time.

B17: F-E7 in human IgG1null format (antibody, V domains shown)
VH: B4 VH with D50I, S61N, P103M, D104G, Y105K
VL: B4 VL with L30V, Y35N, N36T, H39D, N58Y, N96A, L97T, V99T
Regarding B17, the binding entry in [11], in test [3] and in [5] was “binds” throughout.

B18: A-D5 in human IgG1null format (antibody, V domains shown)
VH: B4 VH with S28T, D50I, N55D, S61N, P103M, Y105R
VL: B4 VL with N36T, G56V, F60L, S94F, L97T, V99T
Regarding B18, the binding result in test [12], in test [3], in test [13] and in [5] was “binds” each time.

B19: G-B6 in human IgG4(S228P) format (antibody, V domains shown)
VH: B4 VH with M48I, Y60F, P103M, Y105K
VL: B4 VL with L30V, N36T, N58Y, F60A, L97T, H98Q, V99T
As to B19, in test [5], the binding result is given as “binds”.

B20: G-B6 in human IgG1null format (antibody, V domains shown)
VH: B4 VH with M48I, Y60F, P103M, Y105K
VL: B4 VL with L30V, N36T, N58Y, F60A, L97T, H98Q, V99T
Consider B20, for which the binding result in test [3], in test [14] and in test [5] was “binds” throughout.

B21: A-D5.13 in human IgG1null format (antibody, V domains shown)
VH: B4 VH with D50I, N55D, N59R, P103M, Y105R
VL: B4 VL with G56V, F60L, S94F, L97T, V99T
For B21, in test [2], the binding entry is listed as “binds”.

B22: F-E7 in human IgG4(S228P) format (antibody, V domains shown)
VH: B4 VH with D50I, S61N, P103M, D104G, Y105K
VL: B4 VL with L30V, Y35N, N36T, H39D, N58Y, N96A, L97T, V99T
For B22, the binding result in test [5] is “binds”.
